Laboratory results taken from PubChem BioAssay AID485314 (National Center for Advancing Translational Sciences (NCATS), 2010).
Among all 340,000 compounds or so, about 4,500 (1.3%) were called active. Inconclusive means that the source gave no clear call. Such entries were picked first, then a sample of the others. Calls follow the shape of the dose curve; as a rule, active = well fitted inhibition curve with a large enough effect; inconclusive = small, poorly fitted or top-dose-only effect, or another doubt; inactive = no such curve, though single readings can be large or run the other way. Potencies beside an inconclusive call are fits to weak or partial responses and may not hold up.

Target: DNA polymerase beta (Homo sapiens) (UniProt P06746)
Experiment: qHTS Assay for Inhibitors of DNA Polymerase Beta
Conditions: Pol beta primer extension/strand displacement, fluorescence kinetic; activity change, negative = inhibition: at 114 µM (top of the series)
In short: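 10 nM enzyme + cpd, 15 min RT; start with substrate 50 nM final; read 0 min and after 10 min RT. Corrected, normalized data; 4-parameter Hill curve fit.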
% is scaled to controls: 0 for no effect and ±100 for the full control effect; potency is read from the fitted curve at half-maximal effect.

Structure (SMILES)	Potency	activity change, negative = inhibition
Cc1cc(/C=C2\SC(=S)NC2=O)c(C)n1-c1cccc(O)c1	active: 44.7 µM	
O=C(CSc1ccccn1)Nc1cccc(NC(=O)CSc2ccccn2)n1	active: 10 µM	
CCOC(=O)c1c(NC(C)=O)sc2c(OCC(O)CN(CC)CC)c(Br)ccc12 (centres undefined)	inconclusive: 39.8 µM [inhibitor, single point]	
Cc1nc2sc3c(c2c2nnc(SCC(=O)NCc4ccco4)n12)CCCC3	inconclusive: 17.8 µM [inhibitor, single point]	
Cc1ccc(Cl)cc1N(C)C(=O)c1cc2ccc3cccnc3c2[nH]1		inactive: 8.36%
O=C(N/N=C/C=C\c1ccco1)c1cccs1	active: 22.4 µM	
COc1ccc2c(c1)c(C(C)=O)c(C)n2C		inactive: -12.8%
O=Cc1ccc(-c2cccc(C(=O)O)c2)o1	inconclusive: 39.8 µM [inhibitor, partial curve, poor fit]	
Cc1ccc(Oc2ccc(C(=O)NC3CCSC3=O)cn2)cc1 (centres undefined)	inconclusive: 3.98 µM [inhibitor, full curve, poor fit]	
Cc1nn(-c2ccccc2)c(C)c1/C=N/NC(=O)c1cc(-c2ccc(Br)s2)[nH]n1		inactive: -12.3%
O=C(CSc1nc2cc([N+](=O)[O-])ccc2n1-c1ccccc1)NCc1ccc2c(c1)OCO2	active: 10 µM	
NC(=O)CC(NC(=O)c1ccccc1)c1ccc(NCCCN2CCCC2=O)c([N+](=O)[O-])c1 (centres undefined)	active: 79.4 µM	
Cc1ccc(S(=O)(=O)NNC(=O)c2ccccc2O)cc1	inconclusive: 25.1 µM [inhibitor, single point]	
COc1cccc(NC(=O)NC(C)C2CC3CCC2C3)c1 (centres undefined)	inconclusive: 89.1 µM [inhibitor, single point]	
CCC(=O)N1c2ccc(S(=O)(=O)NCc3ccco3)cc2CC1C (centres undefined)	active: 0.398 µM	
COc1cc(Br)c(CCNC(=O)Cc2ccccc2)cc1OC	inconclusive: 89.1 µM [inhibitor, single point]	
COc1ccc(-c2cc(-c3cccs3)c(C#N)c(SCC(=O)NCc3ccco3)n2)cc1	active: 12.6 µM	
O=C(CSc1nnc(CNc2ccc(F)cc2)n1CC1CCCO1)Nc1ccccc1 (centres undefined)		inactive: -17.6%
COc1cccc(C2=CC(c3ccccc3)n3nnnc3N2)c1 (centres undefined)	inconclusive: 5.62 µM [inhibitor, full curve, poor fit]	
CCOC(=O)c1c(C)[nH]c(C(=O)COC(=O)CCSc2ccccc2)c1C	inconclusive: 89.1 µM [inhibitor, single point]	
O=C(Nc1ccc(N2CCCCC2)cc1)c1ccc([N+](=O)[O-])o1	active: 39.8 µM	
Cc1cccc(Nc2c([N+](=O)[O-])c(=O)oc3ccccc23)c1		inactive: -2.4%
O=C(OCc1nnc(-c2ccccc2)o1)C1CC(=O)N(Cc2ccco2)C1 (centres undefined)	inconclusive: 39.8 µM [inhibitor, full curve, poor fit]	

Structure (SMILES)	Potency	activity change, negative = inhibition
CCCc1nnc(NC(=O)CN2CCOCC2)s1	inconclusive: 44.7 µM [inhibitor, partial curve, poor fit]	
Cc1nn(-c2ccccc2)c2sc(C(=O)N3CCCCC3)cc12	inconclusive: 22.4 µM [inhibitor, single point]	
CC(C)C[C@H](NC(=O)c1nc[nH]c1C(=O)N[C@@H](CC(C)C)C(=O)OC(C)(C)C)C(=O)OC(C)(C)C	inconclusive: 20 µM [inhibitor, full curve]	
CC(=O)CC(C)(C)n1nnc(-c2ccccc2)n1	inconclusive: 0.891 µM [inhibitor, full curve, poor fit]	
Cn1c(CN2CCCCC2)nc2cc(NC(=O)c3ccc(Cl)cc3)ccc21	inconclusive: 5.62 µM [inhibitor, full curve, poor fit]	
CC1CCCC(C)N1C(=O)CSc1nnc(CSc2ncccn2)n1C (centres undefined)	inconclusive: 5.01 µM [inhibitor, full curve, poor fit]	
COC(=O)c1c(-c2ccc(C(C)(C)C)cc2)csc1NC(=O)C1C2CCC(O2)C1C(=O)O (centres undefined)	inconclusive: 35.5 µM [inhibitor, partial curve, poor fit]	
Cc1ccc2nc(NC(=O)CS(=O)(=O)Cc3ccccc3)sc2c1		inconclusive: -35.9% [inhibitor]
COc1ccccc1N(CC(=O)NCc1ccco1)S(C)(=O)=O	inconclusive: 89.1 µM [inhibitor, single point]	
COc1ccc(/C=N/NC(=O)c2cc(-c3ccccc3)nc3ccccc23)c(OC)c1		inactive: 2%
O=S(=O)(Nc1ccc(-c2cnco2)cc1)c1ccccc1	inconclusive: 28.2 µM [inhibitor, single point]	
CC(C)c1ccccc1NC(=O)COC(=O)c1c2c(nc3ccccc13)CCN(Cc1ccccc1)C2	inconclusive: 50.1 µM [inhibitor, partial curve, poor fit]	
Nc1ccccc1C(=O)NNc1c2ccccc2nc2ccccc12	inconclusive: 56.2 µM [inhibitor, single point]	
N#Cc1c(NC(=O)CSc2ncnc3sccc23)oc(-c2ccco2)c1-c1ccco1	active: 10 µM	
S=c1nc(C2CC2)[nH]c2ccccc12	inconclusive: 89.1 µM [inhibitor, single point]	
COc1ccc(-c2csc(C3=C(O)CN(Cc4ccc(Cl)cc4)C3=N)n2)cc1OC	inconclusive: 12.6 µM [inhibitor, partial curve, poor fit]	
CCC(=O)OCC(=O)Nc1cc([N+](=O)[O-])ccc1Cl	inconclusive: 0.199 µM [inhibitor, full curve, poor fit]	
Cc1c(NC(=O)CN2CCC(C(N)=O)CC2)cccc1[N+](=O)[O-]	inconclusive: 89.1 µM [inhibitor, single point]	
O=C(Oc1ccc2c(c1)OCO2)c1cc2c(s1)CCC2	active: 10 µM	
COc1ccc(CNC(=O)c2cnc(C)cn2)cc1	active: 28.2 µM	
CCCCCCCC(=O)Nc1ccc(C(=O)N/N=C/c2cccc([N+](=O)[O-])c2)cc1	inconclusive: 7.94 µM [inhibitor, partial curve]	
Cc1ccc2[nH]c3c(NCc4ccco4)ncnc3c2c1	inconclusive: 8.91 µM [inhibitor, full curve]	
O=C1Nc2ccccc2C1=Nc1cccc([N+](=O)[O-])c1		inactive: -23.4%

Structure (SMILES)	Potency	activity change, negative = inhibition
COc1cccc(CN(C)C(=O)COc2ccc(C(=O)c3ccc(Cl)cc3)cc2)c1OC	inconclusive: 39.8 µM [inhibitor, single point]	
CCOc1ccc(C(=S)N2CCCC2)cc1OCC	inconclusive: 3.16 µM [inhibitor, single point]	
O=C(CCN1C(=O)/C(=C\c2ccco2)SC1=S)Nc1ccc(C(=O)O)c(O)c1	active: 100 µM	
O=C(COC(=O)c1ccc(S(=O)(=O)NCc2ccco2)cc1)NCC1CCCCC1	active: 35.5 µM	
Cc1cccc(-c2noc(-c3ccccc3C(=O)NCc3ccco3)n2)c1	inconclusive: 3.55 µM [inhibitor, partial curve]	
C/C(=N\Nc1ccc(Cl)c(C(=O)O)c1)c1cc2ccccc2o1		inactive: 16.4%
Cc1ccc(S(=O)(=O)N2CCC(C(=O)NCCCN3CCCCCC3)CC2)cc1	inconclusive: 63.1 µM [inhibitor, single point]	
COc1ccccc1Oc1nc2c(c(=O)n(Cc3ccccc3F)c(=O)n2C)n1C	active: 17.8 µM	
COC(=O)N/N=C/c1cc(N=Nc2ccccc2Cl)ccc1O	inconclusive: 44.7 µM [inhibitor, partial curve]	
O=C(OCC(=O)c1ccc[nH]1)c1ccc(S(=O)(=O)N2CCCCC2)cc1	inconclusive: 89.1 µM [inhibitor, single point]	
Cc1cc2oc(C(=O)N(Cc3ccc(N(C)C)cc3)CC3CCCO3)c(C)c2cc1Cl (centres undefined)		inactive: 1.67%
CSc1nc2ccc(NC(=O)C3=NN(c4ccccc4)C(=O)CC3)cc2s1	inconclusive: 4.47 µM [inhibitor, single point]	
O=C(Nc1ccc(O)c2c(=O)cc(-c3cccc(Cl)c3)oc12)c1ccccc1Cl	inconclusive: 56.2 µM [inhibitor, partial curve]	
Cc1c(NC(=O)C2C3C=CC(C3)C2C(=O)O)c(=O)n(-c2ccccc2)n1C (centres undefined)	inconclusive: 39.8 µM [inhibitor, single point]	
COc1ccccc1N1CCN(C(=O)c2cccc(N3C(=O)NC4CC3(C)Oc3ccccc34)c2)CC1 (centres undefined)		inactive: 19.4%
COc1cccc(Nc2c(Nc3cccc(OC)c3)c(=O)c2=O)c1	inconclusive: 6.31 µM [inhibitor, partial curve, poor fit]	
Nc1nc(-c2ccco2)nn1C(=O)CCc1ccccc1		inactive: 3.72%
CCS(=O)(=O)N1Cc2ccccc2CC1C(=O)NCCc1c[nH]c2ccccc12 (centres undefined)	inconclusive: 35.5 µM [inhibitor, full curve, poor fit]	
COc1ccc(Cl)cc1NC(=O)CSc1nnc2[nH]c(=O)cc(-c3ccccc3)n12		inactive: 6.01%
CCc1cccc(NC(=O)c2cc3c(s2)-c2ccccc2OC3)c1	inconclusive: 63.1 µM [inhibitor, single point]	
Cc1ccc(CNC(=O)c2cc3c(-c4ccc(Cl)cc4)nn(C)c3s2)o1	inconclusive: 39.8 µM [inhibitor, single point]	
Cc1nn(CCCC(=O)NCc2ccc(F)cc2)c(C)c1[N+](=O)[O-]	inconclusive: 79.4 µM [inhibitor, single point]	
COc1ccc(C(=O)N2C(=S)NC(=O)/C2=C\c2ccc(C)cc2)cc1	active: 50.1 µM	

Whole records, quoted from the list:
`CCc1cccc(NC(=O)c2cc3c(s2)-c2ccccc2OC3)c1` is listed as Potency: inconclusive: 63.1 µM [inhibitor, single point]
`COc1ccc(-c2cc(-c3cccs3)c(C#N)c(SCC(=O)NCc3ccco3)n2)cc1` is listed as Potency: active: 12.6 µM
`O=C(CSc1nnc(CNc2ccc(F)cc2)n1CC1CCCO1)Nc1ccccc1` (centres undefined) is listed as activity change, negative = inhibition: inactive: -17.6%
`NC(=O)CC(NC(=O)c1ccccc1)c1ccc(NCCCN2CCCC2=O)c([N+](=O)[O-])c1` (centres undefined) is listed as Potency: active: 79.4 µM
